Values from PubChem BioAssay AID504744 (Drosophila RNAi Screening Center, 2011)
The screen tested about 23,000 reagents; this is a random part of those that have a named target and a result. Over the whole deposit, 98 (0.43%) were called active. 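Only hit calls are given; the phospho-dAkt signals, z-scores and hit direction were not deposited.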 A plus sign joins genes that one reagent is predicted to hit.

Assay: 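Find genes whose loss alters insulin-driven dAkt phosphorylation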 (primary screen)
Cells: Drosophila Kc167 cells
Reagents: long dsRNA against Drosophila genes, 250 ng dsRNA per well of a 384-well plate
Timing: 3 days of knock-down, then overnight serum-free starvation before stimulation
Conditions: bovine insulin at 387 nM for 10 minutes after 12 h without serum
Measured: 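In-cell antibody fluorescence for phospho-dAkt in each well over DNA-dye signal, with log2 residuals expressed as z-scores adjusted for cell count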
Rule for the call: 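Under insulin, a gene counts as a hit if the average z-score of two replicates lies above 2.5 or below -2.5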

Cp38 [DRSC18453]
- call: inactive

MESK2 + CG10494 [DRSC04259]
- call: inactive

CG11858 [DRSC14412]
- call: inactive

CG8517 [DRSC07205]
- call: inactive

CG3529 [DRSC10369]
- call: inactive

CG9313 [DRSC04540]
- call: inactive

CG7556 [DRSC20052]
- call: inactive

CG13793 [DRSC02297]
- call: inactive

CG7692 [DRSC10902]
- call: inactive

CG32074 [DRSC22246]
- call: inactive

pdm3 [DRSC06076]
- call: inactive

pdm3 [DRSC06490]
- call: inactive

pdm3 [DRSC22326]
- call: inactive

Next part; the last 3 above are carried over.
pdm3 [DRSC06076]
- call: inactive

pdm3 [DRSC06490]
- call: inactive

pdm3 [DRSC22326]
- call: inactive

CG6865 [DRSC10732]
- call: inactive

CG9068 [DRSC07329]
- call: inactive

CG7950 + Rpp14a [DRSC16353]
- call: inactive

CG31495 [DRSC16762]
- call: inactive

CG15317 [DRSC18005]
- call: inactive

CG7900 [DRSC16336]
- call: inactive

CG7900 [DRSC21343]
- call: inactive

CG6527 [DRSC10659]
- call: inactive

Jasper [DRSC16352]
- call: inactive

Cby [DRSC14591]
- call: inactive

Nprl3 [DRSC11044]
- call: inactive

CG11113 [DRSC06039]
- call: inactive

CG10470 [DRSC02061]
- call: inactive

CG42382 [DRSC07671]
- call: inactive

mIF2 [DRSC14510]
- call: inactive

SIDL [DRSC16077]
- call: inactive

Dtg [DRSC15998]
- call: inactive

nonA [DRSC20357]
- call: inactive

maca [DRSC15738]
- call: inactive

tinc [DRSC14798]
- call: inactive

tinc [DRSC14799]
- call: inactive

tinc [DRSC16308]
- call: inactive

tinc [DRSC16309]
- call: active

CG9173 [DRSC08635]
- call: inactive

CG4701 [DRSC01952]
- call: inactive

Rs1 [DRSC05945]
- call: inactive
